Laboratory results: publication PMC7819943, “Rice protein-binding microarrays: a tool to detect cis-acting elements near promoter regions in rice”
Some of the results follow.

target: T1, OsSMF1 (Oryza sativa, UniProt Q6ZLB0 1-436); test: protein-binding microarray (RPBM); PBS, 2% BSA, 51.3 ng/ul salmon testes DNA, 50 uM zinc acetate, 200 nM TF, 25 C, 1 h; high values mean tight binding; conditions: protein: recombinant; tags: N-terminal polyhistidine and DsRed monomer fusion (pET32a); chain copies: 2; label: CyDye5-dUTP incorporated in the synthesized complementary strand; 3' TTTTT single-stranded linker to array surface; dsDNA, one strand shown
T1 sequence: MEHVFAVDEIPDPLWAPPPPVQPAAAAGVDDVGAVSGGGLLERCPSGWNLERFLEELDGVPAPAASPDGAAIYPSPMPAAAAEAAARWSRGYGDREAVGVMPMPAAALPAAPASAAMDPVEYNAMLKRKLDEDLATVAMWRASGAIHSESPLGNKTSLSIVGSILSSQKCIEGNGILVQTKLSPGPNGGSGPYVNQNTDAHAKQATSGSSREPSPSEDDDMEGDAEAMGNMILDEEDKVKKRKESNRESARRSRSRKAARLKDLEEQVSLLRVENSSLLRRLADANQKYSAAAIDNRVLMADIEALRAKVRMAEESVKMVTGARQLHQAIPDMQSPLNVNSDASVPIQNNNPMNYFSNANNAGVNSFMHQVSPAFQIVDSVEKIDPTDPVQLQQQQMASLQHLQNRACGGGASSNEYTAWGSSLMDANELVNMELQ
In short: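 Transcription factors, each fused N-terminally to a polyhistidine tag and DsRed, were expressed in E. coli BL21-CodonPlus and purified on Ni–NTA. A custom Agilent array was made double-stranded by primer extension with Cy5-dUTP and blocked with 2% BSA. It was incubated with 200 nM protein in PBS, 2% BSA, salmon testes DNA and 50 µM zinc acetate at 25 °C for 1 h, then washed. The binding signal is per-feature fluorescence intensity (arbitrary units) read on an Axon 4000B scanner.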

Sequence	binding signal
TGCGTTGCCAGCTCATCCCGTGGGCCCCACCCAGCCGCCTCGGAGTCACCTAGTGCAG	8050 fluorescence intensity (a.u.)
GTGTGGGCCCCACCTGGCAGTGAGTGCATGCTTGTGCTATCGGAGTCACCTAGTGCAG	3460 fluorescence intensity (a.u.)
AGTAAATACAAAAGAAATCCTGTCAAAACTTGGTAATATTCGGAGTCACCTAGTGCAG	29700 fluorescence intensity (a.u.)
TGATGCATGCTGCTATGGTGCTGACTAGCTAGCAACCAGCCGGAGTCACCTAGTGCAG	3250 fluorescence intensity (a.u.)
CGAGTATCTTCCCTTTCCTTGCGTGTAAAAGAAAGTCTCCCGGAGTCACCTAGTGCAG	4780 fluorescence intensity (a.u.)
TGGGCATATGGCGTGTCATTACATCAAGCAGATCAAGCTGCGGAGTCACCTAGTGCAG	7260 fluorescence intensity (a.u.)
ACCTGCTGTTCTGCCACACAAGCAAGCAACCGCCGCGGGTCGGAGTCACCTAGTGCAG	6140 fluorescence intensity (a.u.)
TCCAGGGCGGCACGCCAGCGGCATCGGATAGGCGCGGAGCCGGAGTCACCTAGTGCAG	3380 fluorescence intensity (a.u.)
GATGTGAATAATGCGTGACGTTGACGTGACATATCACGTACGGAGTCACCTAGTGCAG	7580 fluorescence intensity (a.u.)
AGCCGTTACCTCGTCCTCGACACGCCATCCTTTTCCTCCCCGGAGTCACCTAGTGCAG	6780 fluorescence intensity (a.u.)
ACTATACCGTCTAAAGATCCACTTGCAAAGATTTTCCAAGCGGAGTCACCTAGTGCAG	18800 fluorescence intensity (a.u.)
CTCTCACGGTGCAAGACGTGGAGCGTTATCTCGCGTGGCCCGGAGTCACCTAGTGCAG	3940 fluorescence intensity (a.u.)
GTCGTTTCTCTCTACCACGTGTACAGCAGCAGGTCAGCTGCGGAGTCACCTAGTGCAG	9350 fluorescence intensity (a.u.)
AAGTACGGTCAACCTACCACGTTAGAGAAAACCGTTTTCCCGGAGTCACCTAGTGCAG	3270 fluorescence intensity (a.u.)
CCGCCGACATGGACGGCCGCCATGGCTCCTCGTTGATGGCCGGAGTCACCTAGTGCAG	3410 fluorescence intensity (a.u.)
AGCAATAGTGGGACGGTAGATTGGCTGTCATCGTCACTACCGGAGTCACCTAGTGCAG	4010 fluorescence intensity (a.u.)
TTGTTTACGTTTCGGCATCTACCAGACGTGTCCTCGACGCCGGAGTCACCTAGTGCAG	4780 fluorescence intensity (a.u.)
GGATGCTGACGTTGTTCGCACCAGATTTCTGGACGCTGTCCGGAGTCACCTAGTGCAG	5860 fluorescence intensity (a.u.)
CGTCCAGGCATGTGTTGGCAATCTTATCCCCAACGTTTCCCGGAGTCACCTAGTGCAG	3160 fluorescence intensity (a.u.)
TTAGCCGACTAATTACGAAATGACACGTGTCAAGTTACAACGGAGTCACCTAGTGCAG	16800 fluorescence intensity (a.u.)
GAAACTGCTCTTCCTACCCTCGCGTCCTTTGGCCTCGTCTCGGAGTCACCTAGTGCAG	3440 fluorescence intensity (a.u.)
CCGAGCGGCAAATTAATGTATGCCCGGCTTGTTGCGCCTACGGAGTCACCTAGTGCAG	3380 fluorescence intensity (a.u.)
TTACTTGGCAGTATTCGGCATCTGAATATAGTGTCCCTTTCGGAGTCACCTAGTGCAG	26700 fluorescence intensity (a.u.)
AGGATGCTACAAATTTCTTCGCTGTCAGATGTGATTGCCGCGGAGTCACCTAGTGCAG	15500 fluorescence intensity (a.u.)
CTTCAGTTATGTTAATTACATGTCATTTGTTTTGTTACAACGGAGTCACCTAGTGCAG	4920 fluorescence intensity (a.u.)
GCGCCGCGTCTGCTTTTGTCATATGATGCACGATTGTGCTCGGAGTCACCTAGTGCAG	3180 fluorescence intensity (a.u.)
CGAGCACCTCGCCCTCCAGCCACGCCACGGGGAGAAGATGCGGAGTCACCTAGTGCAG	5010 fluorescence intensity (a.u.)

Sequence	binding signal
TGTTCGACATGGCAGCTGAGTCAGCGTGGGACCCACGTGGCGGAGTCACCTAGTGCAG	16000 fluorescence intensity (a.u.)
AAATTTGGAGATCGATTTTGCAATCTACAATGTGCCGATTCGGAGTCACCTAGTGCAG	3330 fluorescence intensity (a.u.)
GCTGATTAGACTATGTCAATGATCCATGTCATCGAAATCCCGGAGTCACCTAGTGCAG	5120 fluorescence intensity (a.u.)
CATCAATGATATTAGAATTATGATATATGCGATATCACATCGGAGTCACCTAGTGCAG	23800 fluorescence intensity (a.u.)
GCTGCCAGCTCTCACTTTCTAGATAGCTCGAGGAGGTCAGCGGAGTCACCTAGTGCAG	3390 fluorescence intensity (a.u.)
ACTGTCCTAATATCCTTTGTCACGAACGGTCGCCAAAGCGCGGAGTCACCTAGTGCAG	3170 fluorescence intensity (a.u.)
GCATATTGGCATGTATAGCGAAGCCCTAAACTATGACCCTCGGAGTCACCTAGTGCAG	3680 fluorescence intensity (a.u.)
CGGTCGGCTGCCAGCTAAGCCGAGAGCAAACATTTCGTCACGGAGTCACCTAGTGCAG	4320 fluorescence intensity (a.u.)
CCGCGCACCCCAGAATGGCACCGCCACGTGTCAGCTGAAGCGGAGTCACCTAGTGCAG	26300 fluorescence intensity (a.u.)
TGAGGCCAATAGCAGTGCAGGGCACGCTACGCGTGTCTCTCGGAGTCACCTAGTGCAG	3220 fluorescence intensity (a.u.)
CAGTGCCAGTTGACATAGCGCTGAGGTGTCTAAGTTCAGCCGGAGTCACCTAGTGCAG	5690 fluorescence intensity (a.u.)
TTTTACAAGTTTTAGGTACTTTCCTTTTATAATTTCAGATCGGAGTCACCTAGTGCAG	16500 fluorescence intensity (a.u.)
CGTTCCGCCGCTCCGACCTCCGCCTCCTCCTCGGCGTCATCGGAGTCACCTAGTGCAG	4160 fluorescence intensity (a.u.)
CCCCGCCCCATGCGCCGTGTCCACACACACACCAAGCCGCCGGAGTCACCTAGTGCAG	3310 fluorescence intensity (a.u.)
ATCCTATTATGATGGTGGCATTCTACCGAAACGGCGACGACGGAGTCACCTAGTGCAG	4460 fluorescence intensity (a.u.)
ATCTAAGGAAACTGCTAATGATGTCTTTGGACTGCCAGATCGGAGTCACCTAGTGCAG	3520 fluorescence intensity (a.u.)
GCCAAGTTCGCGACGCCTCCTCCGGCGCCCACCCGTGGCGCGGAGTCACCTAGTGCAG	3190 fluorescence intensity (a.u.)
TCCAACTCTTTTAAGCTGAACAGGTAGTCATCAGGTTACCCGGAGTCACCTAGTGCAG	3750 fluorescence intensity (a.u.)
ATTTTCCATGCTGAGATGGACATGCTCCAACTGACTAGGCCGGAGTCACCTAGTGCAG	4120 fluorescence intensity (a.u.)
ATCACTGTTTCGGCCGGCTGCACCGCAGGTCCGCAGCCGCCGGAGTCACCTAGTGCAG	15100 fluorescence intensity (a.u.)
CAAAACCACAATAAGGTCGCCACGTAGCGCCCGAGCGGCACGGAGTCACCTAGTGCAG	4030 fluorescence intensity (a.u.)
GGTCGCCCGCACGGCTTCGCTGCCGTGGCGGATCCAGTCCCGGAGTCACCTAGTGCAG	5850 fluorescence intensity (a.u.)
TATGTACCTTTTCCACAGAACCCTCTACTGTGCCAGGTCACGGAGTCACCTAGTGCAG	15600 fluorescence intensity (a.u.)
GCCGCCCCGGTGATGACGCCGACGCCCGTCGTGACGCGCGCGGAGTCACCTAGTGCAG	3740 fluorescence intensity (a.u.)
GGTTGCTGGCTGCTTAGTGGCGGATGGCGACGGCACAGCGCGGAGTCACCTAGTGCAG	3490 fluorescence intensity (a.u.)
AAGAAACAACACACGTTAGCATTTCACTGCTATTAAGTTCCGGAGTCACCTAGTGCAG	5010 fluorescence intensity (a.u.)
GCAAGACTTATGACATGCAGTCACGCACCCAAGTCTTTTGCGGAGTCACCTAGTGCAG	3820 fluorescence intensity (a.u.)

As entered above.
For binding signal, GCCGCCCCGGTGATGACGCCGACGCCCGTCGTGACGCGCGCGGAGTCACCTAGTGCAG reads 3740 fluorescence intensity (a.u.)
For binding signal, TCCAACTCTTTTAAGCTGAACAGGTAGTCATCAGGTTACCCGGAGTCACCTAGTGCAG reads 3750 fluorescence intensity (a.u.)
For binding signal, AAATTTGGAGATCGATTTTGCAATCTACAATGTGCCGATTCGGAGTCACCTAGTGCAG reads 3330 fluorescence intensity (a.u.)
